## Primary screen of a compound library

Data taken from ChEMBL document CHEMBL3988442, “University of Dundee, Small-Polar-MMV Screening Library” (2021).

Mtb cholesterol medium: 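Growth of Mycobacterium tuberculosis over 4 days (cholesterol / DPPC medium with tyloxapol); the read-out is not stated. Compounds at 50 µM. The record gives no direction; compounds that gave an IC50 in retests scored well above the rest, so higher reads as more growth inhibition. Size under these conditions: about 69,000 compounds, about 370 of them at 50% or above in at least one test.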
Mtb glucose medium: 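Phenotypic screen: M. tuberculosis growth, glucose 7H9 medium, 3 days; the read-out is not stated. Concentration: 50 µM. Direction is inferred from retests: higher values go with more growth inhibition. Of about 69,000 compounds tested this way, about 760 (1.1%) reached 50% or more in at least one test.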

The filed quantity is “Percent Effect” (%). The record does not define 0% and 100%; most values in the screen are far below 50% and negative numbers occur (in some assays of this library far below -100). Compounds were drawn at random from those tested, without regard to their results. Two or more numbers in one place are separate tests of the same structure; such repeats can differ widely.

Result for CCCC(=O)Nc1sc(C(=O)OCC)c(C)c1C#N was Mtb cholesterol medium: -12.48%; Mtb glucose medium: -8.045%.
Result for O=C(NCCCn1ccnc1)N1CCCC1c1ccncc1 (centres undefined) was Mtb cholesterol medium: 15.24%; Mtb glucose medium: -6.028%.
Result for CC(NC(=O)NCCCO)c1ccc(-c2ccncc2)cc1 (centres undefined) was Mtb cholesterol medium: 3.933%; Mtb glucose medium: -3.439% & -20.7%.
Result for Cc1cc(Cc2ccccc2C)cc(C2CCCNC2)n1 (centres undefined) was Mtb cholesterol medium: 6.644%; Mtb glucose medium: 9.32%.
Result for CC(CCc1ccccc1)N1CCC(C(=O)Nc2ccccn2)CC1 (centres undefined) was Mtb cholesterol medium: -19.52%; Mtb glucose medium: -27.5%.
Result for CCN(Cc1cccc(C(=O)Nc2cn(C)nn2)c1)[C@H]1COC[C@@H]1O was Mtb cholesterol medium: -2.463%; Mtb glucose medium: 10.04%.
Result for CCN(C)c1ncnc2c1CCN(Cc1ccc(F)cc1)CC2.O=C(O)C(F)(F)F.O=C(O)C(F)(F)F was Mtb cholesterol medium: -3.808%; Mtb glucose medium: -7.343%.
Result for CC(C)c1nnc2n1CCN(CC(=O)N1CCc3ccccc3C1)C2 was Mtb cholesterol medium: 12.81%; Mtb glucose medium: 17.22%.
Result for Cc1csc2c(N3CCC(NCCc4ccnn4C)CC3)ncnc12 was Mtb cholesterol medium: 10.18% & -1.68%; Mtb glucose medium: 7.372%.
Result for Cc1nc(CSCCC(=O)NCc2ccc(-n3cncn3)nc2)cs1 was Mtb cholesterol medium: -13.34%; Mtb glucose medium: 2.74% & -2.531%.
Result for Cc1cc(NC(=O)C(C)Nc2ccn(Cc3ccccn3)n2)on1 (centres undefined) was Mtb cholesterol medium: -1.79%; Mtb glucose medium: 20.6%.
Result for CC(C)N1CCCC(C(=O)NC(C)(C)c2nnc(N)s2)C1 (centres undefined) was Mtb cholesterol medium: 2.012% & -4.154%; Mtb glucose medium: -34.4%.
Result for CCOc1ccccc1CCC(=O)Nc1c(C)nn(C)c1C was Mtb cholesterol medium: -5%; Mtb glucose medium: -11.39%.
Result for COc1ccc2c(CN3CCN(Cc4cccc(F)c4)CC3)n[nH]c2c1 was Mtb cholesterol medium: -9.953%; Mtb glucose medium: -26.51% & 12.86%.
Result for Cn1cc(N2CCC(Nc3ccc4nccnc4n3)C2=O)cn1 (centres undefined) was Mtb cholesterol medium: 4.843%; Mtb glucose medium: -26.17%.
Result for CC(C)c1ccn(C2(C(=O)O)CCN(c3cc(C(N)=O)ccn3)CC2)n1 was Mtb cholesterol medium: -10.99%; Mtb glucose medium: 6.575%.
Result for O=C1CCC(C(=O)NCCOc2cccc(Cl)c2Cl)CN1 (centres undefined) was Mtb cholesterol medium: -12.14%; Mtb glucose medium: 0.8246% & -20.95%.
Result for COCC(=O)NC1CCN(c2cccc(OC(F)(F)F)c2)C1=O (centres undefined) was Mtb cholesterol medium: -0.04774% & -5.932%; Mtb glucose medium: -6.612%.
Result for CCN(c1ccc(C(=O)N2CCCC2)cc1)S(=O)(=O)CC was Mtb cholesterol medium: -0.8896%; Mtb glucose medium: 4.663% & -1.72%.
Result for O=C(Cc1cccc(F)c1F)NC1COc2ccccc2C1=O (centres undefined) was Mtb cholesterol medium: 2.573%; Mtb glucose medium: 7.009%.
Result for CNC(=O)c1cccc(CNC(C)c2cc(C)ccc2OC(F)F)c1 (centres undefined) was Mtb cholesterol medium: -15.36% & 8.084%; Mtb glucose medium: 2.3% & 17.53%.
Result for Cc1cccc(CN2C(=O)CCC23CCN(C(=O)NC(C)C)CC3)n1.O=C(O)C(F)(F)F was Mtb cholesterol medium: -0.5107% & -6.838%; Mtb glucose medium: -0.5542%.
Result for COCCn1cc2c(n1)C(CNCc1nccs1)OCC2.O=C(O)C(F)(F)F.O=C(O)C(F)(F)F (centres undefined) was Mtb cholesterol medium: -1.33%; Mtb glucose medium: -14.41%.
Result for CC(C)Oc1ccccc1CNC(=O)N(C)C(C)CS(C)(=O)=O (centres undefined) was Mtb cholesterol medium: -5.723%; Mtb glucose medium: -3.616% & 3.32%.
Result for CC(C(=O)N1CCN(Cc2ccc(C#N)cc2)CC1)n1ccnc1 (centres undefined) was Mtb cholesterol medium: -2.597%; Mtb glucose medium: -2.874%.
Result for Cc1cc(F)ccc1N1CCC(N2C[C@@H](CN(C)C)[C@@H](CO)C2)CC1 was Mtb cholesterol medium: 7.496%; Mtb glucose medium: 24.63%.
Result for COCc1cccc(NC(C(N)=O)c2ccc(Br)cc2)c1 (centres undefined) was Mtb cholesterol medium: -2.632%; Mtb glucose medium: -10.24% & 9.366%.
Result for COc1ncc(NC(=O)c2ccco2)c(OC)n1 was Mtb cholesterol medium: -17.49%; Mtb glucose medium: -26.52% & -8.665%.
Result for Cc1n[nH]cc1CNCC1(c2ccc3c(c2)OCO3)CCOCC1.Cl was Mtb cholesterol medium: -12.4%; Mtb glucose medium: -4.687%.

Some entries from above, unchanged:

{"compound": "Cn1cc(N2CCC(Nc3ccc4nccnc4n3)C2=O)cn1", "stereo": "centres undefined", "Mtb cholesterol medium": 4.843, "Mtb glucose medium": -26.17}
{"compound": "CCN(C)c1ncnc2c1CCN(Cc1ccc(F)cc1)CC2.O=C(O)C(F)(F)F.O=C(O)C(F)(F)F", "Mtb cholesterol medium": -3.808, "Mtb glucose medium": -7.343}
{"compound": "O=C(NCCCn1ccnc1)N1CCCC1c1ccncc1", "stereo": "centres undefined", "Mtb cholesterol medium": 15.24, "Mtb glucose medium": -6.028}